Measurements reported in US20230137032A1.
These are yes or no findings as the source states them, for the method shown. Some results given as binding are weak or reduced against the parent protein; the word gives no strength. For part of these data: Sequences can lack the tags named with a protein.

Amino acid sequences for entries named in this document (tags omitted). Residues count along the entry.
Human BCMA-Fc (ELISA of section 4.2) (Q02223, residues 4-53): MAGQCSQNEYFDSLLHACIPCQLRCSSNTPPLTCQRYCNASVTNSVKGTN
recombinant human BCMA, commercial (US Biological, B0410) (Q02223, residues 5-54): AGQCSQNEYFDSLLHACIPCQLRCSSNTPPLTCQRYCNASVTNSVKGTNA

T1: BAFF-R-Fc (UniProt Q96RJ3)
T1 sequence (looked up): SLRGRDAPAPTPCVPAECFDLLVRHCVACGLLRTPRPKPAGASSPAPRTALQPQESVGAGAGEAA

T2: TACI-Fc (UniProt O14836)
T2 sequence (looked up): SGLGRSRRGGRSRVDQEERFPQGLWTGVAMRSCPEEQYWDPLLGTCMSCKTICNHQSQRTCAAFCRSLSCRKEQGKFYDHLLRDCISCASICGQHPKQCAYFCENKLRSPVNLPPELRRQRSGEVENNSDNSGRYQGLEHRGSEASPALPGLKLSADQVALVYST


Legend:
[1] = target: recombinant human BCMA, in house material (human) (UniProt Q02223); test: ProteOn SPR run 2, antibody captured on Protein A; off-rate beyond the sensitivity of the assay
[2] = target: recombinant human BCMA, commercial (US Biological, B0410) (human) (UniProt Q02223); test: Biacore T100, antibody captured on Protein A, 37C
[3] = target: recombinant human BCMA, in house material (human) (UniProt Q02223); test: ProteOn SPR run 2; off-rate beyond sensitivity; in house or commercial BCMA not told apart
[4] = target: BCMA-Fc (Biacore of section 4.3) (Homo sapiens (Human)) (UniProt Q02223); test: Biacore, antibody captured on protein A, BCMA-Fc injected
[5] = target: Human BCMA-Fc (ELISA of section 4.2) (human) (UniProt Q02223); test: ELISA on coated human BCMA-Fc
[6] = target: BCMA-Fc (Biacore of section 4.3) (Homo sapiens (Human)) (UniProt Q02223); test: Biacore, CA8 chimera captured on protein A, BCMA-Fc injected at 2.5 µg/ml, double referenced
[7] = target: cyno BCMA expressed on HEK293 cells (cyno); test: FMAT on cyno BCMA transfected HEK293 cells
BAFF-R-Fc [8] = target: T1, BAFF-R-Fc; test: Biacore, antibody captured on protein A, BAFF-R-Fc injected
TACI-Fc [9] = target: T2, TACI-Fc; test: Biacore, antibody captured on protein A, TACI-Fc injected
[10] = target: Human BCMA-Fc (ELISA of section 4.2) (human) (UniProt Q02223); test: ELISA on coated human BCMA-Fc, anti-human IgG HRP, TMB
[11] = target: cyno BCMA expressed on HEK293 cells (cyno); test: FMAT cell binding on HEK293 cells transfected with cyno BCMA, anti-human IgG FMAT Blue detection
BAFF-R-Fc [12] = target: T1, BAFF-R-Fc; test: Biacore, CA8 chimera captured on protein A, BAFF-R-Fc injected, double referenced
TACI-Fc [13] = target: T2, TACI-Fc; test: Biacore, CA8 chimera captured on protein A, TACI-Fc injected, double referenced

| Binder | binding [1] | binding [2] | binding [3] | also measured |
| --- | --- | --- | --- | --- |
| CA8 humanised J7M1 (antibody, human IgG1, kappa, V domains shown) VH: QVQLVQSGAEVKKPGSSVKVSCKASGYTFTNYWMHWVRQAPGQGLEWMGATYRGHSDTYYNQKFKGRVTITADKSTSTAYMELSSLRSEDTAVYYCARGAIYDGYDVLDNWGQGTLVTVSS VL: DIQMTQSPSSLSASVGDRVTITCSASQDISNYLNWYQQKPGKAPKLLIYYTSNLHSGVPSRFSGSGSGTDYTLTISSLQPEDFATYYCQQYRKLPWTFGQGTKLEIKR | binds | binds | binds |  |
| CA8 humanised J5M2 (antibody, human IgG1, kappa, V domains shown) VH: QVQLVQSGAEVKKPGSSVKVSCKGSGYTFTNYWMHWVRQAPGQGLEWMGATYRGHSDTYYNQKFKGRVTITADTSTSTAYMELSSLRSEDTAVYYCTRGAIYDGYDVLDNWGQGTLVTVSS VL: DIQLTQSPSSLSASVGDRVTITCSASQDISNYLNWYQQKPGKAPELVIYYTSNLHSGVPSRFSGSGSGTDYTLTISSLQPEDFATYYCQQYRKLPWTFGQGTKLEIKR | binds |  | binds |  |
| CA8 humanised J7M0 (antibody, human IgG1, kappa, V domains shown) VH: QVQLVQSGAEVKKPGSSVKVSCKASGYTFTNYWMHWVRQAPGQGLEWMGATYRGHSDTYYNQKFKGRVTITADKSTSTAYMELSSLRSEDTAVYYCARGAIYDGYDVLDNWGQGTLVTVSS VL: DIQMTQSPSSLSASVGDRVTITCSASQDISNYLNWYQQKPGKAPKLLIYYTSNLHSGVPSRFSGSGSGTDFTLTISSLQPEDFATYYCQQYRKLPWTFGQGTKLEIKR | binds | binds | binds |  |
| CA8 humanised J7M2 (antibody, human IgG1, kappa, V domains shown) VH: QVQLVQSGAEVKKPGSSVKVSCKASGYTFTNYWMHWVRQAPGQGLEWMGATYRGHSDTYYNQKFKGRVTITADKSTSTAYMELSSLRSEDTAVYYCARGAIYDGYDVLDNWGQGTLVTVSS VL: DIQLTQSPSSLSASVGDRVTITCSASQDISNYLNWYQQKPGKAPELVIYYTSNLHSGVPSRFSGSGSGTDYTLTISSLQPEDFATYYCQQYRKLPWTFGQGTKLEIKR | binds | binds | binds |  |
| CA8 humanised J5M1 (antibody, human IgG1, kappa, V domains shown) VH: QVQLVQSGAEVKKPGSSVKVSCKGSGYTFTNYWMHWVRQAPGQGLEWMGATYRGHSDTYYNQKFKGRVTITADTSTSTAYMELSSLRSEDTAVYYCTRGAIYDGYDVLDNWGQGTLVTVSS VL: DIQMTQSPSSLSASVGDRVTITCSASQDISNYLNWYQQKPGKAPKLLIYYTSNLHSGVPSRFSGSGSGTDYTLTISSLQPEDFATYYCQQYRKLPWTFGQGTKLEIKR | binds |  | binds |  |
| CA8 humanised J5M0 (antibody, human IgG1, kappa, V domains shown) VH: QVQLVQSGAEVKKPGSSVKVSCKGSGYTFTNYWMHWVRQAPGQGLEWMGATYRGHSDTYYNQKFKGRVTITADTSTSTAYMELSSLRSEDTAVYYCTRGAIYDGYDVLDNWGQGTLVTVSS VL: DIQMTQSPSSLSASVGDRVTITCSASQDISNYLNWYQQKPGKAPKLLIYYTSNLHSGVPSRFSGSGSGTDFTLTISSLQPEDFATYYCQQYRKLPWTFGQGTKLEIKR | binds |  | binds |  |
| CA8 chimera antibody (human chimeric CA8) (antibody, V domains shown) VH: EVQLQQSGAVLARPGASVKMSCKGSGYTFTNYWMHWVKQRPGQGLEWIGATYRGHSDTYYNQKFKGKAKLTAVTSTSTAYMELSSLTNEDSAVYYCTRGAIYNGYDVLDNWGQGTLVTVSS VL: DIQLTQTTSSLSASLGDRVTISCSASQDISNYLNWYQQKPDGTVELVIYYTSNLHSGVPSRFSGSGSGTDYSLTIGYLEPEDVATYYCQQYRKLPWTFGGGSKLEIKR |  |  |  | binding [4]: binds; binding [5]: binds; binding [6]: binds; binding [7]: binds; binding (BAFF-R-Fc [8]): no binding; binding (TACI-Fc [9]): no binding; binding [10]: binds; binding [11]: binds; binding (BAFF-R-Fc [12]): no binding (tested: 2.5 µg/ml); binding (TACI-Fc [13]): no binding (tested: 2.5 µg/ml) |

Continued, in another order:

| binding [1] | binding [2] | binding [3] | Binder | also measured |
| --- | --- | --- | --- | --- |
| binds | binds | binds | CA8 humanised J9M1 (antibody, human IgG1, kappa, V domains shown) VH: QVQLVQSGAEVKKPGSSVKVSCKGSGYTFTNYWMHWVRQAPGQGLEWIGATYRGHSDTYYNQKFKGRATLTADTSTSTAYMELSSLRSEDTAVYYCTRGAIYDGYDVLDNWGQGTLVTVSS VL: DIQMTQSPSSLSASVGDRVTITCSASQDISNYLNWYQQKPGKAPKLLIYYTSNLHSGVPSRFSGSGSGTDYTLTISSLQPEDFATYYCQQYRKLPWTFGQGTKLEIKR |  |
| binds |  | binds | CA8 humanised J9M2 (antibody, human IgG1, kappa, V domains shown) VH: QVQLVQSGAEVKKPGSSVKVSCKGSGYTFTNYWMHWVRQAPGQGLEWIGATYRGHSDTYYNQKFKGRATLTADTSTSTAYMELSSLRSEDTAVYYCTRGAIYDGYDVLDNWGQGTLVTVSS VL: DIQLTQSPSSLSASVGDRVTITCSASQDISNYLNWYQQKPGKAPELVIYYTSNLHSGVPSRFSGSGSGTDYTLTISSLQPEDFATYYCQQYRKLPWTFGQGTKLEIKR |  |
| binds | binds | binds | CA8 humanised J8M2 (antibody, human IgG1, kappa, V domains shown) VH: QVQLVQSGAEVKKPGSSVKVSCKASGYTFTNYWMHWVRQAPGQGLEWMGATYRGHSDTYYNQKFKGRVTITADKSTSTAYMELSSLRSEDTAVYYCTRGAIYDGYDVLDNWGQGTLVTVSS VL: DIQLTQSPSSLSASVGDRVTITCSASQDISNYLNWYQQKPGKAPELVIYYTSNLHSGVPSRFSGSGSGTDYTLTISSLQPEDFATYYCQQYRKLPWTFGQGTKLEIKR |  |
| binds | binds | binds | CA8 humanised J8M0 (antibody, human IgG1, kappa, V domains shown) VH: QVQLVQSGAEVKKPGSSVKVSCKASGYTFTNYWMHWVRQAPGQGLEWMGATYRGHSDTYYNQKFKGRVTITADKSTSTAYMELSSLRSEDTAVYYCTRGAIYDGYDVLDNWGQGTLVTVSS VL: DIQMTQSPSSLSASVGDRVTITCSASQDISNYLNWYQQKPGKAPKLLIYYTSNLHSGVPSRFSGSGSGTDFTLTISSLQPEDFATYYCQQYRKLPWTFGQGTKLEIKR |  |
| binds | binds | binds | CA8 humanised J8M1 (antibody, human IgG1, kappa, V domains shown) VH: QVQLVQSGAEVKKPGSSVKVSCKASGYTFTNYWMHWVRQAPGQGLEWMGATYRGHSDTYYNQKFKGRVTITADKSTSTAYMELSSLRSEDTAVYYCTRGAIYDGYDVLDNWGQGTLVTVSS VL: DIQMTQSPSSLSASVGDRVTITCSASQDISNYLNWYQQKPGKAPKLLIYYTSNLHSGVPSRFSGSGSGTDYTLTISSLQPEDFATYYCQQYRKLPWTFGQGTKLEIKR |  |
| binds | binds | binds | CA8 humanised J9M0 (antibody, human IgG1, kappa, V domains shown) VH: QVQLVQSGAEVKKPGSSVKVSCKGSGYTFTNYWMHWVRQAPGQGLEWIGATYRGHSDTYYNQKFKGRATLTADTSTSTAYMELSSLRSEDTAVYYCTRGAIYDGYDVLDNWGQGTLVTVSS VL: DIQMTQSPSSLSASVGDRVTITCSASQDISNYLNWYQQKPGKAPKLLIYYTSNLHSGVPSRFSGSGSGTDFTLTISSLQPEDFATYYCQQYRKLPWTFGQGTKLEIKR |  |
